Measurements taken from paper PMC4203132.
These are yes or no findings as the source states them, for the method shown. Binding calls can cover weak binding; strength is not graded here. Values belong to the binder of their own block, whether it stands above or below them.

Amino acid sequences for entries named in this document (tags omitted). A change or cut given only in a name is not applied to a line headed by its entry.
UniProt Q8LBL1: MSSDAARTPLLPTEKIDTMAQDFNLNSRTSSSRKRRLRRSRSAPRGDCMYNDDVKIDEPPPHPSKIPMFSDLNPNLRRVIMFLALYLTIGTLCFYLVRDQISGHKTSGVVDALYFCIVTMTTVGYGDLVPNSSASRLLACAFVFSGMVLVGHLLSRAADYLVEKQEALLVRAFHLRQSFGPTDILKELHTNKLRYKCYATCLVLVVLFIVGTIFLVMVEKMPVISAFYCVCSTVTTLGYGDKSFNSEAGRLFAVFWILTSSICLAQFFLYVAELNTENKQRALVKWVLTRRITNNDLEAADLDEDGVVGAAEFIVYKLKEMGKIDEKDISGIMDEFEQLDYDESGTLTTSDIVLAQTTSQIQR

Assays:
[1] = target: barley H+-ATPase (barley); assay: two-hybrid; yeast two-hybrid of wild-type and truncated 14-3-3s with known interactors; bait and prey not told
[2] = target: N-terminus of the vacuolar ion channel TPK1 (UniProt Q8LBL1); assay: as above

binding [1]: binds
B1: 14-3-3 PHI (wild type) (protein, UniProt P46077 1-267)
chain: MAAPPASSSAREEFVYLAKLAEQAERYEEMVEFMEKVAEAVDKDELTVEERNLLSVAYKNVIGARRASWRIISSIEQKEESRGNDDHVTTIRDYRSKIESELSKICDGILKLLDTRLVPASANGDSKVFYLKMKGDYHRYLAEFKTGQERKDAAEHTLTAYKAAQDIANAELAPTHPIRLGLALNFSVFYYEILNSPDRACNLAKQAFDEAIAELDTLGEESYKDSTLIMQLLRDNLTLWTSDMQDESPEEIKEAAAPKPAEEQKEI

binding [2]: binds
B2: 14-3-3 KAPPA (wild type) (protein, UniProt P48348 1-248)
chain: MATTLSRDQYVYMAKLAEQAERYEEMVQFMEQLVSGATPAGELTVEERNLLSVAYKNVIGSLRAAWRIVSSIEQKEESRKNEEHVSLVKDYRSKVETELSSICSGILRLLDSHLIPSATASESKVFYLKMKGDYHRYLAEFKSGDERKTAAEDTMIAYKAAQDVAVADLAPTHPIRLGLALNFSVFYYEILNSSEKACSMAKQAFEEAIAELDTLGEESYKDSTLIMQLLRDNLTLWTSDMQEQMDEA

binding [2]: binds
B3: 14-3-3 LAMBDA (wild type) (protein, UniProt P48349 1-248)
chain: MAATLGRDQYVYMAKLAEQAERYEEMVQFMEQLVTGATPAEELTVEERNLLSVAYKNVIGSLRAAWRIVSSIEQKEESRKNDEHVSLVKDYRSKVESELSSVCSGILKLLDSHLIPSAGASESKVFYLKMKGDYHRYMAEFKSGDERKTAAEDTMLAYKAAQDIAAADMAPTHPIRLGLALNFSVFYYEILNSSDKACNMAKQAFEEAIAELDTLGEESYKDSTLIMQLLRDNLTLWTSDMQEQMDEA
